Experimental data reported in PubChem BioAssay AID1347423 (Functional Genomics Laboratory (NCATS/FGL), 2020).
The campaign covered roughly 52,000 sequences. About 210 (0.4%) were called active.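 How the source made its calls: active means gene whose silencing raises cell survival under the drug, median off-target-corrected z-score across its silencing RNAs 2 or more; inactive means the rest.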 The list shows a part of the results.

Assay: Resistance to Poly (ADP-Ribose) Polymerase inhibitor: Gene Identification via Genome-wide siRNA Screen
Conditions: mouse BRCA2 R2336H ES cells, olaparib, CellTiter-Glo viability; stronger effect = higher value
Excerpt: The role of Poly (ADP-Ribose) Polymerase (PARP) proteins in DNA repair has been elegantly utilized for the synthetic lethality-based treatment of BRCA-deficient tumors by PARP inhibitors. PARP inhibitors are now being used for treatment of BRCA-deficient breast and ovarian cancers. […] While several mechanisms of drug resistance have been identified, majority of these tumors develop drug resistance due to unknown causes. To identified novel regulators of chemo-resistance in BRCA2-mutated cells, we performed a genome wide siRNA library screen. We have found ES cells expressing a hypomorphic allele of BRCA2 to be hypersensitive to PAPP inhibitors (such as olaparib). We used ES cells expressing a mutant allele of BRCA2 that has a single amino acid substitution at position 2336 (arginine to histidine, R2336H). The screen was conducted using an Ambion (Thermo) Silencer Mouse Genome siRNA collection. The library targets 17,575 mouse genes with 3 siRNAs per gene. TET2 (E130014J05Rik) was identified as a top candidate.
Transfections were performed in 384 well plates (Corning 3707). Plates were coated with 0.1% gelatin in H2O overnight at ambient temperature. Gelatin solution was aspirated (BioTek EL406) and siRNAs were printed using a Bravo VPrep liquid handler integrated within a BioCel automation platform (Agilent). Cell viability was measured using CellTiter Glo (Promega). For transfections, […] of serum free media containing Lipofectamine RNAiMax […] was added to wells containing siRNA (0.8pmol). Lipid and siRNA were allowed to complex for 45 min at ambient temperature before addition of 1000 cells in DMEM, 30% FBS to yield final transfection mixtures containing 20 nM siRNA in DMEM, 15% FBS. PARPi (olaparib, AZD2281) was added 48 h post-transfection (500 nM) and viability (CellTiter Glo, Promega) was assayed 72 h later on a PerkinElmer Envision 2104 Multilabel plate reader. Ambion Silencer Select Negative Control #2 was incorporated on all screening plates (16 wells) and the median negative control value on each plate was used for normalization. An siRNA targeting Trp53 was used as a positive control. This control yielded a median protective effect of ~1.9 fold versus negative control throughout the screen. The median absolute deviation (MAD) based z-score was calculated for each siRNA. Genes were then ranked by taking the median value for all siRNAs tested against a given gene. Scores were also adjusted for seed-based off-target effects to help deprioritize likely false positives.

Sequence	z-score
GGAAGAAGUCCAACAGCACTT against C330039G02Rik	inactive: 0.261
CCGUGGUGCAAGCUUACAUTT against Atp2b4	inactive: 0.291
CGUCCUUUAUUAGAGAUGATT against Got1	inactive: -0.637
GGUUGGUUUGAAGAUCAAGTT against Pole2	inactive: -1.69
GCCCUGGAAAGGAUGUUUGTT against Hba-a1	inactive: -0.962
GGAACAUAGUAGCAUGCCATT against Leprel2	inactive: -0.442
GGUCUUUACCAUACACAGCTT against Zfp352	inactive: -0.534
GGUUGUGGAAGAAGGACUCTT against Thrap2	inactive: 0.488
GCCUUGAGAUGACGACAACTT against Thy28	inactive: -0.946
GCUAUUUCUAGGCAGACUGTT against Ypel5	inactive: -1.11
CGAUGGAGCUUUCAAAACUTT against Treml4	inactive: 0.237
GGACCAGACUUUGAAGAAUTT against Homer3	inactive: -1.47
GGGAGUUAACUUCAAGGAATT against Gpr120	inactive: 0.65
GGACCUGAGAUAUUUUCUGTT against Mfap5	inactive: -0.196
GGACAGUGAUGAAGAAAAUTT against 3110031B13Rik	inactive: 0.593
GGGCCUCUCUCAGUGACAUTT against 9130217G22Rik	inactive: -0.726
GCAAGCCAUGAGACACCUUTT against Olfr843	inactive: -0.073
GGAGAACAAAGAUUUCGUGTT against B230384L07	inactive: -0.0293
GGUGUGUGGUGGUUGGUAATT against Siat10	inactive: -0.452
GGCUUAUUAUCAGGAAAUGTT against Plcz1	inactive: -0.672
CGGUUUCACGAAUUCCUCCTT against Zfp291	inactive: 0.177
GGUGCUGUGAUAGAUCAGUTT against Zdhhc13	inactive: 0.296

Sequence	z-score
GCCAGACUAAACAAUACCCTT against Cldn19	inactive: 0.356
GGGUGAUGAUGCAUAUAAGTT against Asb5	inactive: 0.551
GGCGUGGAUUCUCAGAUAGTT against Pnn	inactive: 1.24
CGAGGAACUUCUGUGGAAATT against Mtus1	inactive: 0.857
GGGUACUCACAGGAAAGUGTT against Olfr411	inactive: -0.525
CCUCUCACUAAAGACUUCCTT against Dlgap2	inactive: -0.0891
GCUUACCAAGUGAACACACTT against Mrpl12	inactive: -0.647
GAGCUACGAGGUACAGUUATT against Ifi202b	inactive: -0.885
GGCAAGGCUACUACUUGCATT against Fgf14	inactive: 0.699
GGAGGUCGUAUUGCGCUAUTT against Lnk	inactive: 0.611
GGUGUUCUGUGGUCAUGAGTT against Haghl	inactive: 0.132
GGUCUUUCCAUUCAUACUUTT against Sec24a	inactive: -0.0241
CCUCUACUACAACUGAUUATT against Lamp3	inactive: 0.232
CCCUCCAAUAUGGUUCACCTT against Optn	inactive: -0.175
GCUGAGGCAUAAAAACGAGTT against Atad3a	inactive: 0.0453
AGCAUCAUUACUGGAUUCCTT against Olfr859	inactive: 0.116
CCAGCAUGCACUCAGAUUATT against Trib1	inactive: 0.24
GGUGUUAGAAAAGUUGAUUTT against Figf	inactive: -0.267
GGGCAGAUGUAAUUCUUGUTT against Ctsm	inactive: -0.884
CCUUCGUAAAACAGAUUGATT against Ikbkap	inactive: 0.6
GGAAAAGCUUUGUAUUACUTT against Gpr124	inactive: -0.926
GGAUUUAGUUGAAGCCUUCTT against 9030421J09Rik	inactive: -0.343

Sequence	z-score
GGCUUUCUCCUACAUAUGCTT against Numbl	inactive: -0.005
GCAGAUGCUAUUUAUGCAGTT against 2610031L17Rik	inactive: -1.34
GGAAAUAAUGUUACUGACATT against AW610627	inactive: -1.42
GGGUCAAAGAGAAAAAAGUTT against Hoxa13	inactive: -0.913
GGCUUUACAGAAAUAUCCUTT against 4933417E01Rik	inactive: -0.238
GGAUCUUAGUAAUAUUGGUTT against Ash2l	inactive: -1.75
CCAGGUCUUAGUAAACAUUTT against Cbln2	inactive: -0.0235
GGCUGUAAAUAUCUGCCAUTT against 2310005N01Rik	inactive: 0.636
GGACAUUUUCAAACAAGGCTT against Mthfs	inactive: 0.0323
GGCCUAUGGCUUCAUUAGCTT against 0610012C01Rik	inactive: 0.904
CGAGAAGGGUCAUAUGAGCTT against Rbp4	inactive: 1.54
GGGUUUAUGUAAGUUUCCUTT against Th1l	inactive: -0.894
GGAGACUCCUAAGAAGCAGTT against BC016188	inactive: -0.906
GGUUCUUCAGGCCACUGAUTT against 1110034A24Rik	inactive: 0.416
GGUGUUACAUAUGAGGAAUTT against Asrij	inactive: 0.258
GACCUGAAGAAGUCAGAUGTT against Sycn	inactive: -0.416
GGGACUGGAAACACACACGTT against Etos1	inactive: 0.355
GCACACUACGGUCCAUCUCTT against AY534250	inactive: 0.268
GGUGCUGGAGAAGAACAUGTT against Map2k3	inactive: -1.52
GCUAACCGAGUUAGUGAGUTT against Lrsam1	inactive: -0.889
GGGAAUGUGGAAGAGUUCCTT against Apg4c	inactive: 0.15
GCCCUAUCUGCUGAUACCUTT against D430028G21Rik	inactive: -0.191

Shown with each value named: entries from further up.
GCAGAUGCUAUUUAUGCAGTT against 2610031L17Rik
  z-score: inactive: -1.34
GGGUUUAUGUAAGUUUCCUTT against Th1l
  z-score: inactive: -0.894
GGUUCUUCAGGCCACUGAUTT against 1110034A24Rik
  z-score: inactive: 0.416
GGUGUUACAUAUGAGGAAUTT against Asrij
  z-score: inactive: 0.258
